Source: paper PMC9728996

Protein sequences, listed by entry. Tags and fused reporters are not part of them. Lines headed by an entry give the natural chain unless they say otherwise; changes in a name come on top.
UniProt Q9VDY6: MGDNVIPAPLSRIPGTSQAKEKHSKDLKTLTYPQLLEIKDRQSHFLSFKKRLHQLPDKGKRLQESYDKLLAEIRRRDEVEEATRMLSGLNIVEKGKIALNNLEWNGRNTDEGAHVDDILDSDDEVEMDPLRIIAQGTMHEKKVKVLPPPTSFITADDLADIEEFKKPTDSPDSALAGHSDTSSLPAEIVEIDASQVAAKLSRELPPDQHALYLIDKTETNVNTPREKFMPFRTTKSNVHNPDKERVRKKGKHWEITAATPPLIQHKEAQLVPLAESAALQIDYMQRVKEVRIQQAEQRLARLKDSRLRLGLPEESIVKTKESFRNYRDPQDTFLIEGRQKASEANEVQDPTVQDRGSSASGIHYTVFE

Target: Flag-VN-fGdown1 (wild type Gdown1 of Drosophila melanogaster) (Drosophila melanogaster) (UniProt Q9VDY6)
Test: split reporter; BiFC in HeLa cells co-transfected with one Flag-VN (Venus 1-172) and one Flag-YC (YFP 173-238) plasmid, 0.25 ug each per well; fixed 24 hr post transfection, confocal microscopy; in some panels mock or 20 nM LMB for 6 hr

- binding: binds
Substance: Flag-YC-NELF-E (from UniProt P18615-1 1-380)

Results are given in words; binding and its absence hold for the method and conditions named. Binding seen in cells or lysates may run through a third protein. A result given as binding can be weak or reduced; the word gives no strength.
